According to the supplement of paper PMC10849652:
Some of the results follow.

Amino acid sequences for entries named in this document (tags omitted). A change or cut given only in a name is not applied to a line headed by its entry.
UniProt O94886: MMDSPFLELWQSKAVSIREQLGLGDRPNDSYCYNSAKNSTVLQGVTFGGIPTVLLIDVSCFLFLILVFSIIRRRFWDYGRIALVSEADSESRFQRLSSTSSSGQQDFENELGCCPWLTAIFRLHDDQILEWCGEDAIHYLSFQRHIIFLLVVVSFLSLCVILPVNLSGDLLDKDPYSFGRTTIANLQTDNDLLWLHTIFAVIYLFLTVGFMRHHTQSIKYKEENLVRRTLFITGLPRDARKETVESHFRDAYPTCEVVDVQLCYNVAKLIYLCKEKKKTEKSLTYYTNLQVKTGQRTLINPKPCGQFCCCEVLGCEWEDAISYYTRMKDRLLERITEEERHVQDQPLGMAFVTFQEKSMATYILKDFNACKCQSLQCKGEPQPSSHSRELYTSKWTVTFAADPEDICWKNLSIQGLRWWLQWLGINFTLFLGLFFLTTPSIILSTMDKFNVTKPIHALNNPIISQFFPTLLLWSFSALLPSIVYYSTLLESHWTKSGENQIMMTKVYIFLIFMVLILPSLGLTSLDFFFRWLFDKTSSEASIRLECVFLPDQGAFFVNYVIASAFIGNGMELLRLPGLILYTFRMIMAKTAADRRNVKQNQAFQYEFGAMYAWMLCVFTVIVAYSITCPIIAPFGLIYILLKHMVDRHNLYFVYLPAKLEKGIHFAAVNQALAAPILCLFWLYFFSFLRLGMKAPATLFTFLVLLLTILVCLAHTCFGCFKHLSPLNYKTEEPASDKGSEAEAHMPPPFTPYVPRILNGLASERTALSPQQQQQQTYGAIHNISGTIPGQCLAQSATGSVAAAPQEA
UniProt Q9UPQ9, whole entry, looked up: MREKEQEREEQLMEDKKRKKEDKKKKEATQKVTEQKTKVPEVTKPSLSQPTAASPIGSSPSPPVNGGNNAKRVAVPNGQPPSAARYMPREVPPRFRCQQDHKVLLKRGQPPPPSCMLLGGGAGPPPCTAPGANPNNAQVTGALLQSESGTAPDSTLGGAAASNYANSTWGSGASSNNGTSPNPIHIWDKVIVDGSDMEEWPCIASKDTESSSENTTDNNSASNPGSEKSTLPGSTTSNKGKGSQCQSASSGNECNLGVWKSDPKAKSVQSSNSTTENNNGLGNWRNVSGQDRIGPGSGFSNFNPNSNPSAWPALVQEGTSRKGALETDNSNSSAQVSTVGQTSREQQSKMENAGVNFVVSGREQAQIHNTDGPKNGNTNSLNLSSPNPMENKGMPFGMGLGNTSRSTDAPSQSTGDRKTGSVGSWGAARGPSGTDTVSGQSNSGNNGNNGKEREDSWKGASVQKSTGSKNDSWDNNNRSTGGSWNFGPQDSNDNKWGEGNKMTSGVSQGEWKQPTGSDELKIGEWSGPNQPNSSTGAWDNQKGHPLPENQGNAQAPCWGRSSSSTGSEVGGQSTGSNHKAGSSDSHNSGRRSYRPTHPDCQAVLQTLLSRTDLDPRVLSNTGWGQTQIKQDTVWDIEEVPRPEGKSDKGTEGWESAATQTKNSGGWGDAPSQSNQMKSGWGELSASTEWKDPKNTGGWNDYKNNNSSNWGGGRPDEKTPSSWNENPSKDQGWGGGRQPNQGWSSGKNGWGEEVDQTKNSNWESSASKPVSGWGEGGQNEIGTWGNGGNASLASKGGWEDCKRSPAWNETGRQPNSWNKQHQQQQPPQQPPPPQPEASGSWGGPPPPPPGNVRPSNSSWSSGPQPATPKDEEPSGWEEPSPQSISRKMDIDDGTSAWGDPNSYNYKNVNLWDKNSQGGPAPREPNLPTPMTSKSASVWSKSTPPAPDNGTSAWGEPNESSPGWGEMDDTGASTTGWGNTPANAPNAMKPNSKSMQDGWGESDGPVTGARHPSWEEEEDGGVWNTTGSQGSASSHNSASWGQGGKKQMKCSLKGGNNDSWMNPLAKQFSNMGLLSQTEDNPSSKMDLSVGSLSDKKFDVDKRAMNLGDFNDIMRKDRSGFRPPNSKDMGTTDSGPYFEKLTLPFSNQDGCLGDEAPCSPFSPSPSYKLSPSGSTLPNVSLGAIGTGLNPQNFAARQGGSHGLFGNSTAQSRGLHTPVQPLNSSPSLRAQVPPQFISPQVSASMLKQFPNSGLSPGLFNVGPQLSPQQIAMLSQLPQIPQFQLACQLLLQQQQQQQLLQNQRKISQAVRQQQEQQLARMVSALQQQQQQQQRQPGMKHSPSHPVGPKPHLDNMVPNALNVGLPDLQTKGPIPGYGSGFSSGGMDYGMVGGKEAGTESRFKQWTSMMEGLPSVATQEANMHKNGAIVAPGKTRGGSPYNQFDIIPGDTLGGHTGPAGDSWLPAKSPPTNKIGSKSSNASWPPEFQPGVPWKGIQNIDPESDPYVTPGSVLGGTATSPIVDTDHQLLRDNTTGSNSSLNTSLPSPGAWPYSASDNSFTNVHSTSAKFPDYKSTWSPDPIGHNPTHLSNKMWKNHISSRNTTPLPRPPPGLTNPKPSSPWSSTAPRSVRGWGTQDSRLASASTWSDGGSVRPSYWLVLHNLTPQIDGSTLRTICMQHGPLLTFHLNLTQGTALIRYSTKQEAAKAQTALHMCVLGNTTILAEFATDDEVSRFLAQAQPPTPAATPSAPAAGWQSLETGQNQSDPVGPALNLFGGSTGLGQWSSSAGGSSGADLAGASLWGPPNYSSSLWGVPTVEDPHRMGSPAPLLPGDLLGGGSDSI
UniProt Q5BJD5: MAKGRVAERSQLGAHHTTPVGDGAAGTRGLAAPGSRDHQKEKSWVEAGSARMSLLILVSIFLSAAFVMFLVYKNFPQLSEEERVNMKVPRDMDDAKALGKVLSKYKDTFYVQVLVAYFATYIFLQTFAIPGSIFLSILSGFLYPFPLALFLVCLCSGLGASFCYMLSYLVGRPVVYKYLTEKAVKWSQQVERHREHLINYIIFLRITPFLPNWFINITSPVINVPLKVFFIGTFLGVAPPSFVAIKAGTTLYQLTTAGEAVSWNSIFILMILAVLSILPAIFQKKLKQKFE
UniProt O95807: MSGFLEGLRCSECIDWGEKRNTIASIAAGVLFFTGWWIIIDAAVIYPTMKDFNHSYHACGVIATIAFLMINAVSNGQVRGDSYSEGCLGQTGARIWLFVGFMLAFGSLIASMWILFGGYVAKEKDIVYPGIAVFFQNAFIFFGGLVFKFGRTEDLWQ
UniProt Q9H496: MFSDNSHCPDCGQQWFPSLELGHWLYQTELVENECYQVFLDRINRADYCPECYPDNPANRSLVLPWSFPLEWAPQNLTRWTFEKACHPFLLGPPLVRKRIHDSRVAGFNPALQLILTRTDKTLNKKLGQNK
UniProt Q96SK2: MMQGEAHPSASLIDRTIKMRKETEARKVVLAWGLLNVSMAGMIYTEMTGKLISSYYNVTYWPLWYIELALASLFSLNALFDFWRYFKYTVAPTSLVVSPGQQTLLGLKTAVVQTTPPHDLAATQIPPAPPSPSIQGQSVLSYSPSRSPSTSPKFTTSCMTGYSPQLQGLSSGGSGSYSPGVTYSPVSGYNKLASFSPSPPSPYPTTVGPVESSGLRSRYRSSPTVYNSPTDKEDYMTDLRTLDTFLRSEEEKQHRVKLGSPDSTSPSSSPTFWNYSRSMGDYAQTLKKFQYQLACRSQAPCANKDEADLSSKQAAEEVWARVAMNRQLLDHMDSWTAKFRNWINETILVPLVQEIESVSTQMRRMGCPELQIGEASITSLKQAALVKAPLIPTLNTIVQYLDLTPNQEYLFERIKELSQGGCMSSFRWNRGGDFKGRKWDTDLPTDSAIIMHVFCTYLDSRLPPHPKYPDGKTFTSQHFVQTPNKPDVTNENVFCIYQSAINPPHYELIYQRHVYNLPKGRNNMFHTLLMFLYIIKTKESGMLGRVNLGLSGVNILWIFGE
UniProt P42167: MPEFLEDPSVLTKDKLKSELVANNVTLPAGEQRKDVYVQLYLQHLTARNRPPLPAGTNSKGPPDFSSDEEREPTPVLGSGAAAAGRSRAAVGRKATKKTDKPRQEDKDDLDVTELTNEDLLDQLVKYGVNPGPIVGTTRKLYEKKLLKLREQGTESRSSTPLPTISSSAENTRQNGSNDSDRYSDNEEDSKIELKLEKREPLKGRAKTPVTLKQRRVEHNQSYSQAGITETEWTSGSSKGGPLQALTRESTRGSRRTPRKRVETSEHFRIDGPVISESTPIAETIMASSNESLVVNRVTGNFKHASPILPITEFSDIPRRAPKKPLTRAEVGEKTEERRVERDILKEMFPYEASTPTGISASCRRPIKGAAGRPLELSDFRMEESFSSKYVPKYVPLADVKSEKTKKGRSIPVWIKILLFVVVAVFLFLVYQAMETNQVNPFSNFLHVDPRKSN
UniProt Q8N2U0: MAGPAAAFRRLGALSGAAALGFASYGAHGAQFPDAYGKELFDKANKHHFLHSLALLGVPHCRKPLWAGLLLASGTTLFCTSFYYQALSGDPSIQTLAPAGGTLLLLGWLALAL
UniProt O43399: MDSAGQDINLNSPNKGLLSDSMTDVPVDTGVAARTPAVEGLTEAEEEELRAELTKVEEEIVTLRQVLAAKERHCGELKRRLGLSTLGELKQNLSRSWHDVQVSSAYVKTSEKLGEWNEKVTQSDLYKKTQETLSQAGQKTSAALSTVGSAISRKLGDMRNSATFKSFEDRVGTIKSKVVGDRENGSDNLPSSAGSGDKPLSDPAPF
UniProt Q9UKE5: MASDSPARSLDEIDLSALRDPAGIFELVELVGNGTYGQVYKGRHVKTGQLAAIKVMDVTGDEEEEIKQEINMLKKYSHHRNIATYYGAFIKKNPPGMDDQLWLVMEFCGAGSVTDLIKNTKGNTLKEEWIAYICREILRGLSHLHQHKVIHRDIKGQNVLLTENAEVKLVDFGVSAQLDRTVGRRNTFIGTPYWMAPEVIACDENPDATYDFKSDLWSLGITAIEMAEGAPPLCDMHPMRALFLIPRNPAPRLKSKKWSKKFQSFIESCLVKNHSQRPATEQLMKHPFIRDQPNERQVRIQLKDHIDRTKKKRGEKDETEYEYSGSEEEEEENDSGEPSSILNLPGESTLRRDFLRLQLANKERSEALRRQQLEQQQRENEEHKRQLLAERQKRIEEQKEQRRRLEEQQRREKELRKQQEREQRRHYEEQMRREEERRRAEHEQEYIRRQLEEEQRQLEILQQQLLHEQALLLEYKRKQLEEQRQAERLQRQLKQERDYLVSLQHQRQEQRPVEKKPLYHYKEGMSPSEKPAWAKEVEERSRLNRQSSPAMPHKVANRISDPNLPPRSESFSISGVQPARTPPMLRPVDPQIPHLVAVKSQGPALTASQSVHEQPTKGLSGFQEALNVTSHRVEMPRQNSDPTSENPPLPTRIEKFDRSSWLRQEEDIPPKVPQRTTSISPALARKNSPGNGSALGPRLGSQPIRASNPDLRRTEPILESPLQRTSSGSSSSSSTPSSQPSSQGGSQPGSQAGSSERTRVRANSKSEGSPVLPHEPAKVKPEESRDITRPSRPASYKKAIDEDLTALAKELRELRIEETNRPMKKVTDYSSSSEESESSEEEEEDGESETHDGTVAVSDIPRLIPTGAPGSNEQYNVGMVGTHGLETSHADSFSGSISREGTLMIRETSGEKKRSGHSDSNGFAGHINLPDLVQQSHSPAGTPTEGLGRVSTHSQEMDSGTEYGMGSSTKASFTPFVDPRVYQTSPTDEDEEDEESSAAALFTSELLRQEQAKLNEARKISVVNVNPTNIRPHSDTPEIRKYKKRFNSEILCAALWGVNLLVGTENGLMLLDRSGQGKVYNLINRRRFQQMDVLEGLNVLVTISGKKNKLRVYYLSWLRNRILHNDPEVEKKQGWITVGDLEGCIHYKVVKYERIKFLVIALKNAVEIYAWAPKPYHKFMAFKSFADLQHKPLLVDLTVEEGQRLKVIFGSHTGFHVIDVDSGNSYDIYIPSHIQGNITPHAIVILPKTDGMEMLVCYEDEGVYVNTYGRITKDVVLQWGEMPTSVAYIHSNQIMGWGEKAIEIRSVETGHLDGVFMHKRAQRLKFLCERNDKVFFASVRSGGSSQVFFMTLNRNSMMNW
UniProt Q2T9K0: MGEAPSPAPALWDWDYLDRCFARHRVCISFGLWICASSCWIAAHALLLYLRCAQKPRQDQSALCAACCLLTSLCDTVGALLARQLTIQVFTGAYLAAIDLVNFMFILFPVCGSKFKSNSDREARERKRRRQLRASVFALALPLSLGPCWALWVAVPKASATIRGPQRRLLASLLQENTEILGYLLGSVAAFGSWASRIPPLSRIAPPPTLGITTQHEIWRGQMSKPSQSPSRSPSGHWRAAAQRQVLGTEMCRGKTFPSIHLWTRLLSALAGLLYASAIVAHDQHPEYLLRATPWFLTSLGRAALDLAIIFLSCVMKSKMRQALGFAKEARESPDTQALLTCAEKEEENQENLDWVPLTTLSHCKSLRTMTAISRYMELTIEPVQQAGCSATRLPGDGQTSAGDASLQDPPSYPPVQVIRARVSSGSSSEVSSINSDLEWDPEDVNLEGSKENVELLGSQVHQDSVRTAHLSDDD
UniProt Q9H0R3: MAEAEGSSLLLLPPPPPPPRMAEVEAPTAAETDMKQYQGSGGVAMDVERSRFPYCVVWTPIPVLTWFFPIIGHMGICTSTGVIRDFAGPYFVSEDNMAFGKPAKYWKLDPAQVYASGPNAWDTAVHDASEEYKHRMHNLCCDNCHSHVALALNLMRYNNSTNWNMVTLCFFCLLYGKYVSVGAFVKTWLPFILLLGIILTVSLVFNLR

Legend:
Assay in all cases: log2 fold change, soluble protein after heating vs DMSO (PISA); higher = thermal stabilisation; K562 lysate, 10 uM; active = over 0.2 and 3.5 SD of the protein, either way, in both replicates (recomputed)
[1] = compound: NCC(=O)Nc1ccc(-n2nc(C(F)(F)F)cc2-c2ccc3c(ccc4ccccc43)c2)cc1
Procedure, shortened: (§1)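 Thermal stability, expressed as log-two fold change relative to solvent controls, is given from duplicates. Crude K562 extract in PBS pH 7.4 with 1 mM MgCl2, at 1 mg/mL protein, was treated with 10 μM compound for 30 min and heated in aliquots for 3 min across 48°C-58°C. After pooling, adjustment to 0.5% NP-40 at 4°C and centrifugation at 21,000xg for 90 min, supernatant protein was measured by TMTpro 16plex LC-MS/MS with channel sums equalised.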

vorinostat = compound: O=C(CCCCCCC(=O)Nc1ccccc1)NO [vorinostat]
Procedure, shortened: as §1

silmitasertib = compound: O=C(O)c1ccc2c(c1)nc(Nc1cccc(Cl)c1)c1ccncc12 [silmitasertib]
Procedure, shortened: as §1

[2] = compound: O=C1NC(=O)C(c2cnc3ccccn23)=C1c1cn2c3c(cc(F)cc13)CN(C(=O)N1CCCCC1)CC2
Procedure, shortened: as §1

entospletinib = compound: c1cn2cc(-c3ccc4cn[nH]c4c3)nc(Nc3ccc(N4CCOCC4)cc3)c2n1 [entospletinib]
Procedure, shortened: as §1

Measured: log2 fold change

TMEM63A (UniProt O94886)
inactive: [1] 0.029 | vorinostat 0.073 | silmitasertib 0.026 | [2] -0.013 | entospletinib -0.009

TMEM199 (UniProt Q8N511)
inactive: [1] 0.021 | vorinostat 0.13 | silmitasertib -0.017 | [2] -0.005 | entospletinib 0.008

TNRC6B (UniProt Q9UPQ9)
inactive: [1] 0.004 | vorinostat 0.003 | silmitasertib -0.062 | [2] -0.001 | entospletinib -0.029

TMEM41B (UniProt Q5BJD5)
inactive: vorinostat -0.034 | silmitasertib 0.021 | [2] 0.008 | entospletinib 0.018

TMEM246 (UniProt Q9BRR3)
inactive: vorinostat -0.03 | silmitasertib -0.042

TPT1 (UniProt E9PJF7)
inactive: vorinostat 0.223 | silmitasertib -0.05 | [2] 0.067

TMEM50A (UniProt O95807)
inactive: entospletinib -0.352

TMEM208 (UniProt Q9BTX3)
inactive: vorinostat 0.148 | silmitasertib 0.037 | [2] -0.029 | entospletinib 0.018

TOR1AIP2 (UniProt Q9H496)
inactive: [1] 0.123 | vorinostat -0.125 | silmitasertib 0.013 | [2] -0.062 | entospletinib -0.231

TPRN (UniProt Q4KMQ1)
inactive: [2] -0.024

TRA2B (UniProt P62995)
inactive: [1] 0.07 | vorinostat 0.006 | silmitasertib -0.015 | [2] -0.032 | entospletinib -0.007

TMEM8A (UniProt Q9HCN3)
inactive: [1] -0.069 | vorinostat 0.224 | silmitasertib -0.041 | entospletinib -0.004

TMEM267 (UniProt Q0VDI3)
inactive: vorinostat -0.212 | silmitasertib 0.078 | [2] 0.078

TMPPE (UniProt Q6ZT21)
inactive: [1] 0.023 | vorinostat 0.059 | silmitasertib -0.007 | [2] -0.028 | entospletinib 0.004

TMEM209 (UniProt Q96SK2)
inactive: vorinostat 0.062 | silmitasertib -0.073 | [2] -0.014

TMF1 isoform 2 (UniProt P82094)
inactive: [1] 0.004 | vorinostat 0.094 | silmitasertib -0.001 | [2] 0.006 | entospletinib -0.016

TNK2 isoform 3 (UniProt Q07912)
inactive: [2] -0.211

TOR2A (UniProt Q5JU69)
inactive: [1] -0.012 | vorinostat -0.004 | silmitasertib 0.033 | [2] 0.03 | entospletinib 0.062

TMPO isoform 2 (UniProt P42167)
inactive: [1] -0.066 | entospletinib 0.032

TPRA1 (UniProt Q86W33)
inactive: vorinostat -0.298 | silmitasertib 0.051 | [2] 0.012

TPD52 isoform 3 (UniProt P55327)
inactive: vorinostat 0.168 | silmitasertib -0.028 | entospletinib -0.082

TOPAZ1 (UniProt Q8N9V7)
inactive: [1] 0.036 | vorinostat 0.065 | silmitasertib -0.001 | entospletinib -0.035

TNS1 (UniProt Q9HBL0)
inactive: [2] 0.002 | entospletinib 0.09

TMEM256 (UniProt Q8N2U0)
inactive: [1] -0.177 | entospletinib 0.054

TMEM242 (UniProt Q9NWH2)
inactive: [1] 0.193 | [2] 0.104 | entospletinib 0.002

TNRC6C isoform 2 (UniProt Q9HCJ0)
inactive: vorinostat 0.064 | silmitasertib -0.003 | entospletinib 0.145

TMEM237 isoform 3 (UniProt Q96Q45)
inactive: [1] 0.008 | [2] 0.04

TNFAIP3 (UniProt P21580)
inactive: vorinostat -0.12 | silmitasertib -0.003 | [2] 0.004 | entospletinib 0.044

TPD52L2 isoform 3 (UniProt O43399)
inactive: vorinostat 0.258 | silmitasertib -0.058

TPK1 (UniProt Q9H3S4)
inactive: [1] 0.09 | vorinostat 0.11 | silmitasertib -0.113 | entospletinib -0.05

TPP2 (UniProt Q5VZU9)
inactive: [1] -0.125 | vorinostat -0.173 | silmitasertib 0.044 | [2] 0.002 | entospletinib 0.109

TOMM6 (UniProt Q96B49)
inactive: [1] -0.171 | vorinostat -0.035 | silmitasertib -0.063 | entospletinib 0.004

TNIK isoform 5 (UniProt Q9UKE5)
inactive: [2] -0.134

2 successive records already listed:
TPK1 (UniProt Q9H3S4)
inactive: [1] 0.09 | vorinostat 0.11 | silmitasertib -0.113 | entospletinib -0.05

TPP2 (UniProt Q5VZU9)
inactive: [1] -0.125 | vorinostat -0.173 | silmitasertib 0.044 | [2] 0.002 | entospletinib 0.109

(cont.)

TMEM189 (UniProt A5PLL7)
inactive: vorinostat 0.144 | silmitasertib -0.036 | [2] -0.023 | entospletinib -0.054

TMSB4X (UniProt P62328)
inactive: vorinostat 0.103 | silmitasertib -0.076 | [2] 0.219 | entospletinib -0.158

TMEM268 isoform 3 (UniProt Q5VZI3)
inactive: [2] -0.058 | entospletinib -0.072

TMEM273 isoform 2 (UniProt Q5T292)
inactive: vorinostat 0.046 | silmitasertib -0.061 | [2] -0.128

TMEM44 (UniProt Q2T9K0)
inactive: entospletinib -0.084

TMTC3 (UniProt Q6ZXV5)
inactive: [1] 0.017 | vorinostat 0.107 | silmitasertib 0.005 | [2] -0.053 | entospletinib 0.023

TMEM222 (UniProt Q9H0R3)
inactive: vorinostat 0.067 | silmitasertib 0.034 | [2] -0.008 | entospletinib 0.008

TMTC4 isoform 3 (UniProt Q5T4D3)
inactive: entospletinib -0.054

TOM1 (UniProt O60784)
inactive: [1] -0.001 | vorinostat 0.088 | silmitasertib 0.171 | entospletinib 0

TMEM250 (UniProt H0YL14)
inactive: [2] 0.187
